Results are given in words; binding and its absence hold for the method and conditions named. Binding seen in cells or lysates may run through a third protein. Here binding means that the protein was enriched with, or labelled near, the bait; the list need not be complete.

Results on five molecules are retold here after publication PMC9674349.

The target of test [1] is T1, gephyrin, native, in mouse brain (mouse (endogenous in brain)) (UniProt Q8BUV3).
T1 sequence: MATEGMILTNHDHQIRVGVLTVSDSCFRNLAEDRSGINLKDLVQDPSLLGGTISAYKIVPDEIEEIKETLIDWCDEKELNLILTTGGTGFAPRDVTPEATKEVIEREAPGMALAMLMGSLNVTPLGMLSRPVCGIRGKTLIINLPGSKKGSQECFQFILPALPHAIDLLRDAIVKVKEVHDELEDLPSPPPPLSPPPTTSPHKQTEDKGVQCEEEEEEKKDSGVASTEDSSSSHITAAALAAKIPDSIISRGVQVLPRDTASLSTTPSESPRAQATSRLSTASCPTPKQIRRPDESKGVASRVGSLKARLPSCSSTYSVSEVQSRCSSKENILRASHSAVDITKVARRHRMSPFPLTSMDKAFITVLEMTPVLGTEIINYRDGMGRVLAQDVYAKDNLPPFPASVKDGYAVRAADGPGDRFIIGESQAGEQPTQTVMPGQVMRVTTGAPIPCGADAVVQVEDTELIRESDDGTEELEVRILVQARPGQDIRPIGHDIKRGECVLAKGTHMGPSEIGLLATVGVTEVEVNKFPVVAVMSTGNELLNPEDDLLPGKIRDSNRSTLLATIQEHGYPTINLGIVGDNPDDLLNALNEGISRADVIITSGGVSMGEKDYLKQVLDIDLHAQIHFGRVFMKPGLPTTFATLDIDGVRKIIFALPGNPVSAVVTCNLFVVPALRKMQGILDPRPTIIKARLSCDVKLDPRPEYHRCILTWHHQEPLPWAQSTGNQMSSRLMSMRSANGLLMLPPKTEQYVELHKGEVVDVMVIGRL
Kind of test: affinity purification with mass spectrometry; native gephyrin complexes precipitated from mouse cortex and hippocampus lysate with DARPin-hFc 27B3, 27F3, 27G2 or antibody 3B11 on Protein G magnetic beads; LC-MS/MS; against control DARPin-hFc E3_5 or control IgG.

Test [2] deals with T2, gephyrin, native, in mouse brain (mouse (endogenous in brain)), Q8BUV3.
T2 chain: T1 sequence
Described as above. Conditions: remark: other sources report otherwise.

B1: PURA (protein, UniProt P42669 1-321)
chain: MADRDSGSEQGGAALGSGGSLGHPGSGSGSGGGGGGGGGGGGSGGGGGAPGGLQHETQELASKRVDIQNKRFYLDVKQNAKGRFLKIAEVGAGGNKSRLTLSMSVAVEFRDYLGDFIEHYAQLGPSQPPDLAQAQDEPRRALKSEFLVRENRKYYMDLKENQRGRFLRIRQTVNRGPGLGSTQGQTIALPAQGLIEFRDALAKLIDDYGVEEEPAELPEGTSLTVDNKRFFFDVGSNKYGVFMRVSEVKPTYRNSITVPYKVWAKFGHTFCKYSEEMKKIQEKQREKRAACEQLHQQQQQQQEETTAATLLLQGEEEGEED
With B1, the binding result in test [1] is “binds”.

B2: GABAA receptor subunit GBRA1, P62812 28-455 (protein)
chain: QPSQDELKDNTTVFTRILDRLLDGYDNRLRPGLGERVTEVKTDIFVTSFGPVSDHDMEYTIDVFFRQSWKDERLKFKGPMTVLRLNNLMASKIWTPDTFFHNGKKSVAHNMTMPNKLLRITEDGTLLYTMRLTVRAECPMHLEDFPMDAHACPLKFGSYAYTRAEVVYEWTREPARSVVVAEDGSRLNQYDLLGQTVDSGIVQSSTGEYVVMTTHFHLKRKIGYFVIQTYLPCIMTVILSQVSFWLNRESVPARTVFGVTTVLTMTTLSISARNSLPKVAYATAMDWFIAVCYAFVFSALIEFATVNYFTKRGYAWDGKSVVPEKPKKVKDPLIKKNNTYAPTATSYTPNLARGDPGLATIAKSATIEPKEVKPETKPPEPKKTFNSVSKIDRLSRIAFPLLFGIFNLVYWATYLNREPQLKAPTPHQ
B2: the binding result in test [2] is recorded as “binds”.

B3: IQSEC3 (protein, UniProt Q3TES0 1-1195)
chain: MESLLENPVRAVLYLKELTAIVQNQQSLIHTQRQRIDELERRLDELSAENRSLWEHQQLLQAQPPPGLVPPPPSAPLPAPAVTAPAAAAAQEPLQDHGQLIPASPEPPLQHHGQLLAQPQPAPSSRVQTPQSPHQHPVAPGAIADKEKERPSSCCAAAGALLQHASPAALGKGVLSRRPENETVLHQFCCPAADTEQKPACSDLASQSDGSCAQAGGGMEDSVVAAVAAGRPSAHAPKAQAPELQQEEERPGAVGSPRAGPLRAASPGRQQPALATALCSHTPAASEYELSLDLKNKQIEMLEHKYGGHLVSRRAACTIQTAFRQYQLSKNFEKIRNSLLESRLPRRISLRKVRAPTAESLVAEKALLEGCGLLGLPLGRSPSLPPTFAGSLTELEDSFTEQVQSLAKSIDDALSTWSLKTMCSLQESGAYQLHQALHPSAGQPGLETEAAAREPESGPGSGDEAGGLPQGHSGTLMMAFRDVTVQIANQNISVSSSTALSVANCLGAQTAQATAEPAAAQAEQEDTADQEVSEVPASEQMDPPSEDSEAAESRAQSAQEPAVAQAVVEEAVATEAEEEEEGAKQAGKGAEAEGGDNSEQLSSSSASTKSAKSSSEASAAASKEALQAVILSLPRYHCENPASCRSPTLSTDTLRKRLYRIGLNLFNINPDKGIQFLISRGFIPDTPIGVAHFLLQRKGLSRQMIGEFLGNSKKQFNRDVLDCVVDEMDFSNMELDEALRKFQAHIRVQGEAQKVERLIEAFSQRYCMCNPEVVQQFHNPDTIFILAFAIILLNTDMYSPNIKPDRKMMLEDFIRNLRGVDDGADIPRELVVGIYERIQQKELKSNEDHVTYVTKVEKSIVGMKTVLSMPHRRLVCCSRLFEVTDVNKLQKQAAHQREVFLFNDLLVILKLCPKKKSSFTYTFCKAVGLLGMRFHLFENEYYSHGITLATPLSGSEKKQVLHFCALGSDEMQKFVEDLKESIAEVTELEQIRIEWELEKQQGTKTLSVRSAGAQGDPQSKQGSPTAKREAMAGEKAAESSGEVSIHNRLQTSQHSPKLGVERGAPAPSPPTSPPPLPPDPQPSPLREQPPPLPLPPPTPPGTLVQCQQIVKVIVLDKPCLARMEPLLSQALSCYASSSSDSCGSTPLRGPGSPVKVIHQPPLPPPPPPYNHPHQFCPPGSMLLRRRYSSGSRSLV
For B3, the binding entry in test [1] is reported as “binds”.

B4: PURB (protein, UniProt O35295 1-324)
chain: MADGDSGSERGGGGGGGGGPGGFQPAPRGGGGGGGGPGGEQETQELASKRLDIQNKRFYLDVKQNAKGRFLKIAEVGAGGSKSRLTLSMAVAAEFRDSLGDFIEHYAQLGPSSPEQLAAGAEEGGGPRRALKSEFLVRENRKYYLDLKENQRGRFLRIRQTVNRGGGGFGGGPGPGGLQSGQTIALPAQGLIEFRDALAKLIDDYGGDEDELAGGPGGGAGGPGGGLYGELPEGTSITVDSKRFFFDVGCNKYGVFLRVSEVKPSYRNAITVPFKAWGKFGGAFCRYADEMKEIQERQRDKLYERRGGGSGGGDESEGEEVDED
For the molecule B4, the binding result in test [1] was “binds”.

B5: collybistin (protein, UniProt Q3UTH8 1-516)
chain: MYDLITGDSIVSAEAVWDHVTMANRELAFKAGDVIKVLDASNKDWWWGQIDDEEGWFPASFVRLWVNQEDGVEEGPSDVQNGHLDPNSDCLCLGRPLQNRDQMRANVINEIMSTERHYIKHLKDICEGYLKQCRKRRDMFSDEQLKVIFGNIEDIYRFQMGFVRDLEKQYNNDDPHLSEIGPCFLEHQDGFWIYSEYCNNHLDACMELSKLMKDSRYQHFFEACRLLQQMIDIAIDGFLLTPVQKICKYPLQLAELLKYTAQDHSDYRYVAAALAVMRNVTQQINERKRRLENIDKIAQWQASVLDWEGEDILDRSSELIYTGEMAWIYQPYGRNQQRVFFLFDHQMVLCKKDLIRRDILYYKGRIDMDKYEVIDIEDGRDDDFNVSMKNAFKLHNKETEEVHLFFAKKLEEKIRWLRAFREERKMVQEDEKIGFEISENQKRQAAMTVRKASKQKGVNSARSVPPSYPPPQDPLNQGQYLVPDGIAQSQVFEFTEPKRSQSPFWQNFSRLTPFKK
On to B5, for which, in test [1], the binding entry is recorded as “binds”.
